Assay results published in the supplement of paper PMC11732987, “Enantioselective OTUD7B fragment discovery through chemoproteomics screening and high-throughput optimisation” (Communications Chemistry, 2025).
The list shows a part of the results. The data scatter; read single values as rough.

The chains behind the UniProt entries cited, without tags or fusion partners. Where a name states a change or a piece, a line headed by the entry shows the natural chain unless it says otherwise.
UniProt Q9UBX3: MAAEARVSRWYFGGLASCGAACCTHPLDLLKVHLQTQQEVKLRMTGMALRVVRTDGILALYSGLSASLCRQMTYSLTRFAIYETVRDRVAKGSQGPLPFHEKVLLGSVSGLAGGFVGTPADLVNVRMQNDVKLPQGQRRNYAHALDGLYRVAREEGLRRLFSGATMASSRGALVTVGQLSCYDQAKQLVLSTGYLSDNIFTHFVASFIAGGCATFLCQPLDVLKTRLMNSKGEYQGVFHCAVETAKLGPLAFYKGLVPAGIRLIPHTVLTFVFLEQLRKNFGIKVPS
UniProt Q9H3E2: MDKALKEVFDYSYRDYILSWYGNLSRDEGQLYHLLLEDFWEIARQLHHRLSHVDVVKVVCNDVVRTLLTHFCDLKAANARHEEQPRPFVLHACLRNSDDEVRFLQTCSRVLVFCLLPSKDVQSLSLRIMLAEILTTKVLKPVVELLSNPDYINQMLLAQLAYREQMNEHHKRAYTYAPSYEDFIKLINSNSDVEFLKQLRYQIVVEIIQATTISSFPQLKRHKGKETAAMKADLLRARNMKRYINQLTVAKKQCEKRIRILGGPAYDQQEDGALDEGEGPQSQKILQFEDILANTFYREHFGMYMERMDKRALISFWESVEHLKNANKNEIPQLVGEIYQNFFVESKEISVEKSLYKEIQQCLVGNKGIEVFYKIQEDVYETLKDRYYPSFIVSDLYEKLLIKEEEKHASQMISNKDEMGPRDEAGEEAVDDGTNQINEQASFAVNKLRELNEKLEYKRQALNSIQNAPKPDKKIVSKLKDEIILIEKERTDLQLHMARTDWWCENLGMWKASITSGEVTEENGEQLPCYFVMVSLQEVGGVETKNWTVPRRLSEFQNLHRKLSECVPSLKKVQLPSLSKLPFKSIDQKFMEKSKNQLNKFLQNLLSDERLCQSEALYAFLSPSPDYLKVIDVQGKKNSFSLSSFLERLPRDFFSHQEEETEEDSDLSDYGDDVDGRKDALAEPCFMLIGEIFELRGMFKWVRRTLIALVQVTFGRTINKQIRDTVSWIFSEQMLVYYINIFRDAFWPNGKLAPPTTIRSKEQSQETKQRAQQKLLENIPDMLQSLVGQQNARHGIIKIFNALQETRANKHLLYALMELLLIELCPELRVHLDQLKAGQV
UniProt Q9NRA2: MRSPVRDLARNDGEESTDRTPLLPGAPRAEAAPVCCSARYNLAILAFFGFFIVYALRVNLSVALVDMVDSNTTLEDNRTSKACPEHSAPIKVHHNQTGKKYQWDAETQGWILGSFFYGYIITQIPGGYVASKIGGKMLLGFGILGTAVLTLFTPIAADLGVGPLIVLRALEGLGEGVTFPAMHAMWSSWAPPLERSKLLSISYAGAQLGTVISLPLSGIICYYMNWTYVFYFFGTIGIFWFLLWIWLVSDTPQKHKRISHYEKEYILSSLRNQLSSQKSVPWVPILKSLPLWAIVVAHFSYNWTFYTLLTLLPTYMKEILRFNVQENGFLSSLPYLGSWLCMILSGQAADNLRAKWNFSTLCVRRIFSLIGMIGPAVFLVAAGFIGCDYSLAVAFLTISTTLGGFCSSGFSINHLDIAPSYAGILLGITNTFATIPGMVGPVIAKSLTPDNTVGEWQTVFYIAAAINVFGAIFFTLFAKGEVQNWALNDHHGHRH
UniProt Q6IEG0: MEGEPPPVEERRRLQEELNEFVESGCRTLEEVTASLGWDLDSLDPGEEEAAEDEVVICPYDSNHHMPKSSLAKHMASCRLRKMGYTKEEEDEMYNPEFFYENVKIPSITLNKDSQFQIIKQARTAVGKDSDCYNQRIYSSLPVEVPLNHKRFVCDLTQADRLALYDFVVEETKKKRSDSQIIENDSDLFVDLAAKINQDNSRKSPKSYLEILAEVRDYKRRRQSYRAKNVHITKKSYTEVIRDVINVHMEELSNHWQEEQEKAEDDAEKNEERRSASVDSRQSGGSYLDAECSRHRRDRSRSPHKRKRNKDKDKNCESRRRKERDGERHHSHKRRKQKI
UniProt O95219: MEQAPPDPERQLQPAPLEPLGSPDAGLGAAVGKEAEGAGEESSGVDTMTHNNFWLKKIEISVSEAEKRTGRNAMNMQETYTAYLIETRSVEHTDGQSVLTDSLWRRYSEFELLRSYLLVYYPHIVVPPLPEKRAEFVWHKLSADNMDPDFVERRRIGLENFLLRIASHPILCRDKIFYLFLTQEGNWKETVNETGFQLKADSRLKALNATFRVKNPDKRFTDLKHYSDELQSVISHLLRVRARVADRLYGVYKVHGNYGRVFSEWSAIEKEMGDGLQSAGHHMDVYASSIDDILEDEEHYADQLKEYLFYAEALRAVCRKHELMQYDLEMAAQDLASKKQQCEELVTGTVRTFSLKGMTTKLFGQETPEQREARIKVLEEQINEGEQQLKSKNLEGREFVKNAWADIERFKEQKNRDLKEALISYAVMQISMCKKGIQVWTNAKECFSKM
UniProt Q07617: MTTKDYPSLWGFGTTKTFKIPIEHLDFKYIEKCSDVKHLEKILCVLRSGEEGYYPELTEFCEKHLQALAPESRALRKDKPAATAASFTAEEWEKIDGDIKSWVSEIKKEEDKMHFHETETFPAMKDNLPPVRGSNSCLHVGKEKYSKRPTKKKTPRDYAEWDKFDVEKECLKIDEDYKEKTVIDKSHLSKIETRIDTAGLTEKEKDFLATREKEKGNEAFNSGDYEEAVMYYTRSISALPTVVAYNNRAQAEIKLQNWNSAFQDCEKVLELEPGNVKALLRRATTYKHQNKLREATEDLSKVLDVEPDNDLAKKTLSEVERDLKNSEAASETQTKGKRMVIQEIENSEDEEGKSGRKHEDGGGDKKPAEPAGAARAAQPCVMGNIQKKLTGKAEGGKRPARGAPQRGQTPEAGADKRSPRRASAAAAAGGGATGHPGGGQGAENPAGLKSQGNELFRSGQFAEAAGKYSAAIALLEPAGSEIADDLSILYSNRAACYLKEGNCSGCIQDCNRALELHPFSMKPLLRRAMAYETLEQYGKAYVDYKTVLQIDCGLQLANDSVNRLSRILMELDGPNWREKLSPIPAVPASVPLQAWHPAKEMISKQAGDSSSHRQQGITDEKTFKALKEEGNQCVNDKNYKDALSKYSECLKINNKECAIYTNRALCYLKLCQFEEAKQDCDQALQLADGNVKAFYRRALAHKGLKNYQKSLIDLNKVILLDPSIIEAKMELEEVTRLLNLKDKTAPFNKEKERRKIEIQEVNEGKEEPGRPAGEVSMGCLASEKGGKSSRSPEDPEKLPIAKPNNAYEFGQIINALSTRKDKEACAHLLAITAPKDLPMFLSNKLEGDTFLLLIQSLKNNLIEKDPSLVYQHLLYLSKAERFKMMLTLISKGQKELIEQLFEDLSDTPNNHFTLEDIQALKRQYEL
UniProt P18583: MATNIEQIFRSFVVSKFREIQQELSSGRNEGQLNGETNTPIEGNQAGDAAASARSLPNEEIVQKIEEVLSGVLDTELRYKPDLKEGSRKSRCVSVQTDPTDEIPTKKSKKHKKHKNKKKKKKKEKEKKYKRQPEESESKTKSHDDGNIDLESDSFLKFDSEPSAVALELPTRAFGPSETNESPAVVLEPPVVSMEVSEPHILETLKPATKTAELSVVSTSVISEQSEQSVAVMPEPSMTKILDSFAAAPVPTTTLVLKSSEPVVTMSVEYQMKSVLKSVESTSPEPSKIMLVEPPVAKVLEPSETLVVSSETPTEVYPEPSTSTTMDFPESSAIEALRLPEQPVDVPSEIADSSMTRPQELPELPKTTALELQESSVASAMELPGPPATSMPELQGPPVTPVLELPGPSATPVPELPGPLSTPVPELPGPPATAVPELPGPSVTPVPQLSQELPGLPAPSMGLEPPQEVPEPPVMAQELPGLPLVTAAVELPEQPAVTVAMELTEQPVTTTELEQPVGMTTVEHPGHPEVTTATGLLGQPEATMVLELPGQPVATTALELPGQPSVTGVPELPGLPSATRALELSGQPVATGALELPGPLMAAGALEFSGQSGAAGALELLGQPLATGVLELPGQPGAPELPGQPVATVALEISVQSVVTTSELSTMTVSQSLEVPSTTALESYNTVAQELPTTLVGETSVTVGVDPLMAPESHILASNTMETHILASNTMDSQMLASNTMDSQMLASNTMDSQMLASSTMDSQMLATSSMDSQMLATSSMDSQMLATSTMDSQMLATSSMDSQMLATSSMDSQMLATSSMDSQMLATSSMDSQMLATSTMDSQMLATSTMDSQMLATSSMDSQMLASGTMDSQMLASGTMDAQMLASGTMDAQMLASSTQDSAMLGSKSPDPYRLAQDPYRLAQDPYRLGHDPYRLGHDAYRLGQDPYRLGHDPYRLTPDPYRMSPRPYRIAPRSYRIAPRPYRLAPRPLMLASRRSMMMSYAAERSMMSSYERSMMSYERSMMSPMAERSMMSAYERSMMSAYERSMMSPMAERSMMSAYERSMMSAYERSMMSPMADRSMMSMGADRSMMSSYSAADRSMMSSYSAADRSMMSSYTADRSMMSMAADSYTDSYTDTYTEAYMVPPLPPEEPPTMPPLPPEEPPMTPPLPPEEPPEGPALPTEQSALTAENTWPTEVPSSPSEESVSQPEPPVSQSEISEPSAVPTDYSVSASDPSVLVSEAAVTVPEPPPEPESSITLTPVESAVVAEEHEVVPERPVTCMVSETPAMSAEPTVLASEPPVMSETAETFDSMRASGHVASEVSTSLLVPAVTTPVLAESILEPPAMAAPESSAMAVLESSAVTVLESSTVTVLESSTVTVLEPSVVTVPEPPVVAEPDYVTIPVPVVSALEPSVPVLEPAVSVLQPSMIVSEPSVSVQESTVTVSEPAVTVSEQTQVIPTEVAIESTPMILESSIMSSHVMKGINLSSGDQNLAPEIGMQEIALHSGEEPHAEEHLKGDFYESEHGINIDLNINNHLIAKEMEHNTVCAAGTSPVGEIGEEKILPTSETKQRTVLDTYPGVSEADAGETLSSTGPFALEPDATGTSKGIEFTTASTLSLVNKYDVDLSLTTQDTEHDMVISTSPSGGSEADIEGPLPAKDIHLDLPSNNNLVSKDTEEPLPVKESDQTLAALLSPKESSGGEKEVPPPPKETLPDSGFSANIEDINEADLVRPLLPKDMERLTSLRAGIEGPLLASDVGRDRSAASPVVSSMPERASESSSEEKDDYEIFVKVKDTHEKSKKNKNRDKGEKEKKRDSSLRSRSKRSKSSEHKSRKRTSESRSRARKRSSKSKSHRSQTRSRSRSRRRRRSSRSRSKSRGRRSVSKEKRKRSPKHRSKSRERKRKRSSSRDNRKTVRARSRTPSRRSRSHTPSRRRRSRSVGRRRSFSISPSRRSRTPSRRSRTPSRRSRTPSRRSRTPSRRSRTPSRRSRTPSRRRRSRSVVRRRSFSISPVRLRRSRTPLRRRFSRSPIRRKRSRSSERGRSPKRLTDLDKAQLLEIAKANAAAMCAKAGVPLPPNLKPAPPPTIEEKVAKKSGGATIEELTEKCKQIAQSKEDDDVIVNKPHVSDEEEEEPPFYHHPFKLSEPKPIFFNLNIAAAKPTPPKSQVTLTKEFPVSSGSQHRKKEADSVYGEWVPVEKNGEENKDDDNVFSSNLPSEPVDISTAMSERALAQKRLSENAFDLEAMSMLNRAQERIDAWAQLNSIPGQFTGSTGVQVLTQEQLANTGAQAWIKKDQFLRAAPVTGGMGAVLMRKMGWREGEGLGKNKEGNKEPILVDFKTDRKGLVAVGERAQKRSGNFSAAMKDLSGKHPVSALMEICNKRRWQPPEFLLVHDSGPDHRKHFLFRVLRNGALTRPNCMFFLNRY
UniProt Q6NUK1: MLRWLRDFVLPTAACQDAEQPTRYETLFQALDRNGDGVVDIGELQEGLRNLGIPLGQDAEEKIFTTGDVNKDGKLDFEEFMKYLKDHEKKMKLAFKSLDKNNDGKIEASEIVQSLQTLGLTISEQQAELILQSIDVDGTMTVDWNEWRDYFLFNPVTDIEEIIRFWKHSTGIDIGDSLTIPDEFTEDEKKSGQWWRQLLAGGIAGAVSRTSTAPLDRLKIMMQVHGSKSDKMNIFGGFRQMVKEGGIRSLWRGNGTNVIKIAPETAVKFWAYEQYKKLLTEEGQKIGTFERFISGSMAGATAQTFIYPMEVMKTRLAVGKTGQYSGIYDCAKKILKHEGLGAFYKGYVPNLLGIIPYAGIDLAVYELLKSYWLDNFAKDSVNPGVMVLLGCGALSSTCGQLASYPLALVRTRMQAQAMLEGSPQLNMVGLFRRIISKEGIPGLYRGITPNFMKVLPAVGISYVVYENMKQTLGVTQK
UniProt P12236: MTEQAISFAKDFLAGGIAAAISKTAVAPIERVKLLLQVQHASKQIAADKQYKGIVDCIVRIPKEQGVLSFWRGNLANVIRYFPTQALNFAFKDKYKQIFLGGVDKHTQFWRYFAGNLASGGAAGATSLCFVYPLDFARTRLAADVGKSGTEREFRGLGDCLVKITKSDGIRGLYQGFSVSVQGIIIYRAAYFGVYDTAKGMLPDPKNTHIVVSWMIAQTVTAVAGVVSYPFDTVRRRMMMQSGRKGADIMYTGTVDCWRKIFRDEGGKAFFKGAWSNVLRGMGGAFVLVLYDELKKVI

Compound: ClCC(=O)N[C@H]1CCCc2ccccc12
Assay: log2 mean competition ratio of IA-DTB cysteine labelling (DMSO/compound) (log2 ratio); higher = stronger cysteine engagement by compound
Conditions: treatment time: 4 h, cell line lysate: HEK293T
Procedure: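 IA-DTB competitive cysteine chemoproteomics in HEK293T RIPA lysate. Lysates were treated with compound 29 or 30 at 50 or 200 µM for 4 h, then IA-DTB (500 µM, 1 h), trypsin-digested, NeutrAvidin-enriched and analysed by diaPASEF. Competition ratio = intensity DMSO / intensity compound (n=4 treated, n=64 DMSO); binding: mean log2 CR ≥ 1 and p ≤ 0.05 plus QC filters. Target is the cysteine site.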

Row | Target | log2 mean competition ratio (50 µM) | log2 mean competition ratio (200 µM)
1 | SMYD4 C640 (UniProt Q8IYR2) | -0.233 | 0.214
2 | SMC1B C102 (UniProt Q8NDV3) | 0.268 | 0.419
3 | SLC25A10 C240 (UniProt Q9UBX3) | 0.113 | -0.00391
4 | SMOC1 C67 (UniProt Q9H4F8) | -0.15 | 0.252
5 | SLC22A17 C525 | -0.0594 | 0.139
6 | SNX25 C60 (UniProt Q9H3E2) | -0.194 | 0.206
7 | SLC17A5 C83 (UniProt Q9NRA2) | -0.066 | -0.656
8 | SMPD4 C68 (UniProt Q9NXE4) | -0.432 | -0.127
9 | SNRPB;SNRPN C19;(C19) | -0.0455 | -0.067
10 | SOS1 C372 (UniProt Q07889) | -0.172 | 0.267
11 | SNRNP48 C26 (UniProt Q6IEG0) | -0.146 | 0.175
12 | SORT1 C702 (UniProt Q99523) | -0.0354 | 0.52
13 | SNX27 C30 (UniProt Q96L92) | -0.376 | -0.535
14 | SMPD4 C164 (UniProt Q9NXE4) | -0.586 | -0.0699
15 | SNX4 C342 (UniProt O95219) | 0.0971 | -0.211
16 | SPAG1 C657 (UniProt Q07617) | 0.461 | -0.0741
17 | SMC4 C110 | 0.0219 | 0.107
18 | SPART C562 (UniProt Q8N0X7) | 0.497 | -0.134
19 | SON C92 (UniProt P18583) | -0.348 | -0.134
20 | SLC25A24 C330 (UniProt Q6NUK1) | 0.0916 | 0.212
21 | SLC25A6 C257 (UniProt P12236) | 0.718 | 0.513
